From PMC7950127

Sequences of proteins named here, by UniProt entry; tags and fusion partners are left off. A change or cut given only in a name is not applied to a line headed by its entry.
UniProt Q83BS7: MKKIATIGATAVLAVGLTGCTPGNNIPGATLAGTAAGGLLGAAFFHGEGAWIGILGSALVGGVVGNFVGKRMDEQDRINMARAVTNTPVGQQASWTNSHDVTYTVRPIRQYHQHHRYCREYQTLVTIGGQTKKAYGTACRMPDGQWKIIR
UniProt Q15388: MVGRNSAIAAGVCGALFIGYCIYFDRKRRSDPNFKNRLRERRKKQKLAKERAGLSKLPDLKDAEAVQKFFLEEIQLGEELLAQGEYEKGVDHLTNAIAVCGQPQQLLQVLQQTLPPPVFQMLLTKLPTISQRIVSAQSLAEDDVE

B1: SCO2 (protein, UniProt O43819 42-266)
chain: GPAETGGQGQPQGPGLRTRLLITGLFGAGLGGAWLALRAEKERLQQQKRTEALRQAAVGQGDFHLLDHRGRARCKADFRGQWVLMYFGFTHCPDICPDELEKLVQVVRQLEAEPGLPPVQPVFITVDPERDDVEAMARYVQDFHPRLLGLTGSTKQVAQASHSYRVYYNAGPKDEDQDYIVDHSIAIYLLNPDGLFTDYYGRSRSAEQISDSVRRHMAAFRSVLS
B2: TOM40 (protein, UniProt O96008 1-361)
chain: MGNVLAASSPPAGPPPPPAPALVGLPPPPPSPPGFTLPPLGGSLGAGTSTSRSSERTPGAATASASGAAEDGACGCLPNPGTFEECHRKCKELFPIQMEGVKLTVNKGLSNHFQVNHTVALSTIGESNYHFGVTYVGTKQLSPTEAFPVLVGDMDNSGSLNAQVIHQLGPGLRSKMAIQTQQSKFVNWQVDGEYRGSDFTAAVTLGNPDVLVGSGILVAHYLQSITPCLALGGELVYHRRPGEEGTVMSLAGKYTLNNWLATVTLGQAGMHATYYHKASDQLQVGVEFEASTRMQDTSVSFGYQLDLPKANLLFKGSVDSNWIVGATLEKKLPPLPLTLALGAFLNHRKNKFQCGFGLTIG

The molecules below were run against Mitochondrial Coxiella effector protein C (MceC, CBU1425) with C-terminal 3XFLAG (Coxiella burnetii) (UniProt Q83BS7) (assay: affinity purification with mass spectrometry).
With “TOM20 (from UniProt Q15388 1-145) (receptor)” the binding was “binds”. B1 was tested, and the binding was “binds”. In the case of B2, the binding is reported as “binds”.

No constants are given. Whether binding was seen depends on the method and setting. Binding seen in cells or lysates may run through a third protein. These calls come from enrichment with a bait or labelling near it, and not all partners need be listed.
